Reference: the supplement of paper PMC7661543
± gives the standard deviation of the averaged measurements. Differences between knockout arms are mostly noise.

Tested on: HCC-38
Assay: relative cell number vs DMSO control (72 h) (% of DMSO); higher = less growth inhibition (more cells)
Protocol: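 QMAP-Seq: a pool of 5 breast cancer cell lines (ZR-75-1, SKBR3, HCC-38, MDA-MB-231, BT-20), each carrying 12 doxycycline-inducible Cas9 sgRNA perturbations (11 knockouts plus non-targeting sgNT), was treated with compounds for 72 h at four 10-fold doses (10 nM-10 uM or 1 nM-1 uM range). Barcodes were amplified and sequenced, and cell number was interpolated from 293T spike-in standard curves. The result is expressed as % of the median of DMSO wells. Two biological replicates.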

CC(C)(C#N)c1ccc(N2C(=O)OCc3cnc4ccc(-c5cnc6ccccc6c5)cc4c32)cc1
Conditions | relative cell number
sgRNA knockout: sgATF3, 10 nM | 105 ± 6.2
sgRNA knockout: sgATF3, 100 nM | 88.9 ± 4.2
sgRNA knockout: sgATF3, 1000 nM | 78.1 ± 5.4
sgRNA knockout: sgATF3, 10000 nM | 39.2 ± 5.2
sgRNA knockout: sgATF4, 10 nM | 101 ± 27
sgRNA knockout: sgATF4, 100 nM | 102 ± 19
sgRNA knockout: sgATF4, 1000 nM | 82.9 ± 1.7
sgRNA knockout: sgATF4, 10000 nM | 41.5 ± 4.4
sgRNA knockout: sgATF6, 10 nM | 92.3 ± 12
sgRNA knockout: sgATF6, 100 nM | 103 ± 1.9
sgRNA knockout: sgATF6, 1000 nM | 77.6 ± 12
sgRNA knockout: sgATF6, 10000 nM | 35.3 ± 8.1
sgRNA knockout: sgATG7, 10 nM | 97 ± 19
sgRNA knockout: sgATG7, 100 nM | 96.4 ± 21
sgRNA knockout: sgATG7, 1000 nM | 77.6 ± 1.4
sgRNA knockout: sgATG7, 10000 nM | 39.8 ± 2.3
sgRNA knockout: sgERN1, 10 nM | 105 ± 29
sgRNA knockout: sgERN1, 100 nM | 97.9 ± 14
sgRNA knockout: sgERN1, 1000 nM | 87.5 ± 9.6
sgRNA knockout: sgERN1, 10000 nM | 44.7 ± 6.5
sgRNA knockout: sgHSF1, 10 nM | 99 ± 4.4
sgRNA knockout: sgHSF1, 100 nM | 100 ± 2.9
sgRNA knockout: sgHSF1, 1000 nM | 81.1 ± 15
sgRNA knockout: sgHSF1, 10000 nM | 47.2 ± 8.9
sgRNA knockout: sgHSF2, 10 nM | 100 ± 12
sgRNA knockout: sgHSF2, 100 nM | 99.5 ± 3.7
sgRNA knockout: sgHSF2, 1000 nM | 71.1 ± 0.81
sgRNA knockout: sgHSF2, 10000 nM | 42.8 ± 11
sgRNA knockout: sgKEAP1, 10 nM | 91 ± 21
sgRNA knockout: sgKEAP1, 100 nM | 94.3 ± 8.3
sgRNA knockout: sgKEAP1, 1000 nM | 64.8 ± 6
sgRNA knockout: sgKEAP1, 10000 nM | 44.1 ± 12
sgRNA knockout: sgNFE2L2, 10 nM | 100 ± 17
sgRNA knockout: sgNFE2L2, 100 nM | 92 ± 24
sgRNA knockout: sgNFE2L2, 1000 nM | 78.8 ± 3
sgRNA knockout: sgNFE2L2, 10000 nM | 39.5 ± 0.78
sgRNA knockout: sgSLC35F2, 10 nM | 104 ± 23
sgRNA knockout: sgSLC35F2, 100 nM | 107 ± 32
sgRNA knockout: sgSLC35F2, 1000 nM | 80.2 ± 12
sgRNA knockout: sgSLC35F2, 10000 nM | 40.1 ± 0.99
sgRNA knockout: sgXBP1, 10 nM | 105 ± 22
sgRNA knockout: sgXBP1, 100 nM | 94.3 ± 18
sgRNA knockout: sgXBP1, 1000 nM | 76.6 ± 10
sgRNA knockout: sgXBP1, 10000 nM | 38.7 ± 3.6

COc1cc2nc(N3CCCN(C)CC3)nc(NC3CCN(Cc4ccccc4)CC3)c2cc1OC
Conditions | relative cell number
sgRNA knockout: sgATF3, 10 nM | 120 ± 20
sgRNA knockout: sgATF3, 100 nM | 108 ± 15
sgRNA knockout: sgATF3, 1000 nM | 80.9 ± 5.9
sgRNA knockout: sgATF3, 10000 nM | 5.49 ± 3.5
sgRNA knockout: sgATF4, 10 nM | 109 ± 4.9
sgRNA knockout: sgATF4, 100 nM | 119 ± 27
sgRNA knockout: sgATF4, 1000 nM | 82.2 ± 1.6
sgRNA knockout: sgATF4, 10000 nM | 5.39 ± 2.3
sgRNA knockout: sgATF6, 10 nM | 112 ± 19
sgRNA knockout: sgATF6, 100 nM | 98.9 ± 9.7
sgRNA knockout: sgATF6, 1000 nM | 83.6 ± 16
sgRNA knockout: sgATF6, 10000 nM | 4.37 ± 2.4
sgRNA knockout: sgATG7, 10 nM | 105 ± 12
sgRNA knockout: sgATG7, 100 nM | 96.6 ± 9.6
sgRNA knockout: sgATG7, 1000 nM | 78.3 ± 5.6
sgRNA knockout: sgATG7, 10000 nM | 5.72 ± 2.3
sgRNA knockout: sgERN1, 10 nM | 94.7 ± 8.6
sgRNA knockout: sgERN1, 100 nM | 106 ± 14
sgRNA knockout: sgERN1, 1000 nM | 82.1 ± 7.1
sgRNA knockout: sgERN1, 10000 nM | 4.61 ± 1.8
sgRNA knockout: sgHSF1, 10 nM | 89.6 ± 21
sgRNA knockout: sgHSF1, 100 nM | 98.1 ± 8.1
sgRNA knockout: sgHSF1, 1000 nM | 78.4 ± 16
sgRNA knockout: sgHSF1, 10000 nM | 5.42 ± 3.2
sgRNA knockout: sgHSF2, 10 nM | 106 ± 38
sgRNA knockout: sgHSF2, 100 nM | 103 ± 8.1
sgRNA knockout: sgHSF2, 1000 nM | 89.3 ± 12
sgRNA knockout: sgHSF2, 10000 nM | 4.7 ± 0.81
sgRNA knockout: sgKEAP1, 10 nM | 96 ± 16
sgRNA knockout: sgKEAP1, 100 nM | 101 ± 28
sgRNA knockout: sgKEAP1, 1000 nM | 93.4 ± 31
sgRNA knockout: sgKEAP1, 10000 nM | 6.21 ± 3.1
sgRNA knockout: sgNFE2L2, 10 nM | 107 ± 20
sgRNA knockout: sgNFE2L2, 100 nM | 110 ± 23
sgRNA knockout: sgNFE2L2, 1000 nM | 78.5 ± 2.7
sgRNA knockout: sgNFE2L2, 10000 nM | 4.67 ± 1.6
sgRNA knockout: sgSLC35F2, 10 nM | 99.6 ± 9.1
sgRNA knockout: sgSLC35F2, 100 nM | 106 ± 10
sgRNA knockout: sgSLC35F2, 1000 nM | 83.9 ± 3.5
sgRNA knockout: sgSLC35F2, 10000 nM | 5.81 ± 0.8
sgRNA knockout: sgXBP1, 10 nM | 112 ± 23
sgRNA knockout: sgXBP1, 100 nM | 107 ± 21
sgRNA knockout: sgXBP1, 1000 nM | 80.9 ± 0.87
sgRNA knockout: sgXBP1, 10000 nM | 5.47 ± 0.83
